Inconclusive results, whose numbers are uncertain, are shown with a selection of clear calls. For some assays here: Potencies beside an inconclusive call are fits to weak or partial responses and may not hold up. Activity calls are given as the source filed them. Unless noted, calls come from the whole dose curve; as a rule, active = well fitted curve in the direction sought with a large enough effect in the repeat runs; inconclusive = weak or mixed curves; inactive = no such curve, though single readings can be large; an effect the other way counts as inactive or inconclusive.
What was measured:
[1] = qHTS assay to identify small molecule agonists of the estrogen related receptor signaling pathway with the pleiotropic PPARgamma coactivator (PGC) (AID 1224823); note: potency is the fitted concentration of half-maximal effect
Procedure, shortened: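 Luminescence from One-Glo reagent (30 min, room temperature) was read after 18 h compound treatment at 37 C of PGC/ERR cells plated 6 h beforehand; compounds delivered in DMSO by pin tool.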

Sequences of proteins named here, by UniProt entry; tags and fusion partners are left off. A change or cut given only in a name is not applied to a line headed by its entry.
UniProt Q03181: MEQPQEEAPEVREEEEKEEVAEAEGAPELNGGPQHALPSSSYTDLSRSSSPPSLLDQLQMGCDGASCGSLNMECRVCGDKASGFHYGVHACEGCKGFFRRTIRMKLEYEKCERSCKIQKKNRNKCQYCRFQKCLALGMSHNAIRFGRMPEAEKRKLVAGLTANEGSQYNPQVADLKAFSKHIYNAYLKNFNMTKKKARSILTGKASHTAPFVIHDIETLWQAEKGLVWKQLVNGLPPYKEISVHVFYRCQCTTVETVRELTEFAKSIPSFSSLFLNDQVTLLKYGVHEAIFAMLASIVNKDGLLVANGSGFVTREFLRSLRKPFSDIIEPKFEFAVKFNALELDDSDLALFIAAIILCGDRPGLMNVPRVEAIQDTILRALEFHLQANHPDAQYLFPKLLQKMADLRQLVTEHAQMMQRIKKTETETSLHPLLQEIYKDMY
UniProt Q92731, whole entry, looked up: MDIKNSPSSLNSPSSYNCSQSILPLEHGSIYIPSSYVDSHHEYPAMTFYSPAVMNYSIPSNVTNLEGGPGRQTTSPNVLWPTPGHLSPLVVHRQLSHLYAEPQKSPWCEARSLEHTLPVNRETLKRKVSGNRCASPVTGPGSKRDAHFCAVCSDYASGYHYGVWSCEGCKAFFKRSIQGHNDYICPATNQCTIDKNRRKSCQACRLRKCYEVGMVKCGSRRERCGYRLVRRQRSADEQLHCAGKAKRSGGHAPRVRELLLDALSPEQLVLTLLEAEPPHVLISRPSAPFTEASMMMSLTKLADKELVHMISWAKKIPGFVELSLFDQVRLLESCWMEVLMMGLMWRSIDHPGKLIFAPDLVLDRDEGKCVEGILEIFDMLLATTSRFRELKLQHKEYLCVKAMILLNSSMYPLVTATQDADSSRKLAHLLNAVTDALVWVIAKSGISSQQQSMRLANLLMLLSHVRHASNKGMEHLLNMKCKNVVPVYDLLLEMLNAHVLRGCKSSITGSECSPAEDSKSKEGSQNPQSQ
UniProt P11712, whole entry, looked up: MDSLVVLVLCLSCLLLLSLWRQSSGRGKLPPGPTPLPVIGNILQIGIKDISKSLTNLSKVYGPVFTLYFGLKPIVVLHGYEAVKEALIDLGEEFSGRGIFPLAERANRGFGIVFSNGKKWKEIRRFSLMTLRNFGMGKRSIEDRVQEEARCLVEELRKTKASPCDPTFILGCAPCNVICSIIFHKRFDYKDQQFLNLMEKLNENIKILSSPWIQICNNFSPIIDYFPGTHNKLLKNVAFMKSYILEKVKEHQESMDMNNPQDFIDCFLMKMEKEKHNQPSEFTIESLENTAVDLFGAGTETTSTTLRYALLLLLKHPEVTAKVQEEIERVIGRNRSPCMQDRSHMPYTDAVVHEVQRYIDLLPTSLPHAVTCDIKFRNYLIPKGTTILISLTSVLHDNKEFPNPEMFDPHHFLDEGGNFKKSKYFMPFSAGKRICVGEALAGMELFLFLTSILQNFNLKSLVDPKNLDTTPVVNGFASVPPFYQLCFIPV
UniProt P05177, whole entry, looked up: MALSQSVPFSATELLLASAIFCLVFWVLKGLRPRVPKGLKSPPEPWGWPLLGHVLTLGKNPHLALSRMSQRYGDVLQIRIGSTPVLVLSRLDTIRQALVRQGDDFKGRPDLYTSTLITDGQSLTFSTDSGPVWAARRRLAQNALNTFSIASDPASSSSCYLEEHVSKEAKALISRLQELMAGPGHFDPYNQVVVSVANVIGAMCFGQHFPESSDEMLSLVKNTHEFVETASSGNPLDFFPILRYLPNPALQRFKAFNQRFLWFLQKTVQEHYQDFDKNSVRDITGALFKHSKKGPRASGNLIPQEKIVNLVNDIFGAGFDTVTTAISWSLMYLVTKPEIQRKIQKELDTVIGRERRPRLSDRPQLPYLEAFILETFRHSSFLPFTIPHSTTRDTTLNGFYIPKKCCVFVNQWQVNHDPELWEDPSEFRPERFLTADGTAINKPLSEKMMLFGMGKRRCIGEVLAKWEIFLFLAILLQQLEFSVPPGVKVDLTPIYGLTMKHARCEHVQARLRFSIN

[2] = qHTS assay for small molecule agonists of the p53 signaling pathway (AID 651631; calls by dose curve; note: potency is the fitted concentration of half-maximal effect; nearly all actives have a fitted effect of over 15% in size); details: HCT-116 p53RE-bla reporter, beta-lactamase FRET ratio, 16 h; activation: at 73.3 µM (top of the series) unless noted
Procedure, shortened: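 Read-out is beta-lactamase FRET fluorescence measured 2 h after substrate addition at room temperature, in HCT-116 cells with a p53 response element-driven reporter exposed to compounds for 16 h at 37 °C.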

[3] = qHTS assay for identifying genotoxic compounds that show differential cytotoxicity against isogenic chicken DT40 cell lines with known DNA damage response pathways - wild type cell line (AID 743012); details: DT40 wild type chicken cells viability, CellTiter-Glo, 40 h; activity change, negative = cytotoxicity: at 68.4 µM (top of the series) unless noted; note: potency is the fitted concentration of half-maximal effect; nearly all actives have a fitted effect of over 60% in size
Procedure, shortened: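 Luminescent ATP viability signal (CellTiter-Glo, 30 min RT) recorded after wild type DT40 cells were incubated with compounds for 40 h at 37 C/5% CO2.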

[4] = qHTS assay for identifying genotoxic compounds that show differential cytotoxicity against isogenic chicken DT40 cell lines with known DNA damage response pathways - Rev3 mutant cell line (AID 743014); details: chicken DT40 Rev3-/- viability, CellTiter-Glo, 40 h; series mostly up to 68.4 µM; note: potency is the fitted concentration of half-maximal effect; nearly all actives have a fitted effect of over 55% in size
[5] = qHTS assay to identify small molecule antagonists of the androgen receptor (AR) signaling pathway using the MDA cell line - cell viability counter screen (AID 743041; note: potency is the fitted concentration of half-maximal effect; nearly all actives have a fitted effect of over 45% in size); details: MDA-kb2 viability, CellTiter-Fluor, 16 h, cells co-treated with R1881 androgen agonist; viability change, negative = cytotoxic: at 70.3 µM (top of the series)
Procedure, shortened: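 Viability read by CellTiter-Fluor fluorescence in the same wells as the antagonist screen, added after 15.5 h of a 16 h, 37C exposure. Human breast carcinoma MDA-kb2 AR-luc cells, compounds co-dosed with agonist R1881.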

[6] = qHTS assay to identify small molecule antagonists of the thyroid receptor (TR) signaling pathway (AID 743065); note: nearly all actives have a fitted effect of over 55% in size
Procedure, shortened: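 Antagonism measured as loss of luciferase signal in GH3 cells stably carrying a TRE-luciferase reporter, co-treated with compound and T3 (1 nM final) for 23.5 h at 37 C. Viability was read in the same well by CellTiter-Fluor.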

[7] = qHTS assay for small molecule agonists of the antioxidant response element (ARE) signaling pathway (AID 743202; active = well fitted activation curve with a large enough effect in the signal ratio in the repeat runs, not every such curve was filed as active; inconclusive = weak or mixed curves, or effect the other way; inactive = no such curve, though single readings can be large or run the other way; the % refers to the signal ratio; note: potency is the fitted concentration of half-maximal effect); details: HepG2 ARE-bla reporter, beta-lactamase FRET, 16 h; activation: at 73.3 µM (top of the series) unless noted
Procedure, shortened: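 After 16 hours of compound treatment at 37 C, HepG2 cells with a stably integrated ARE-driven beta-lactamase reporter were loaded 2 hours at room temperature with LiveBLAzer B/G FRET substrate and fluorescence intensity measured.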

[8] = qHTS assay for small molecule activators of the heat shock response signaling pathway - cell viability counter screen (AID 743209); details: HSE-bla HeLa viability, CellTiter-Glo luminescence, 5 h; activity change, negative = cytotoxicity: at 62.6 µM (top of the series) unless noted; note: nearly all actives have a fitted effect of over 50% in size
Procedure, shortened: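 Viability of HSE-bla HeLa cells is measured with CellTiter-Glo in the wells already used for the reporter read. Compound exposure lasts 5 h at 37 C, and luminescence is read after 30 min at room temperature.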

[9] = target: Peroxisome proliferator-activated receptor delta (Homo sapiens) (UniProt Q03181); assay: qHTS assay to identify small molecule agonists of the peroxisome proliferator-activated receptor delta (PPARd) signaling pathway (AID 743212; calls by dose curve;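 note: HEK293H cells with PPARd UAS beta-lactamase reporter GeneBLAzer system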); details: HEK293H PPARd-UAS-bla, beta-lactamase FRET ratio, 17 h; activation: at 62.6 µM (top of the series) unless noted
Procedure, shortened: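 Beta-lactamase reporter readout: a ratiometric FRET signal from the LiveBLAzer substrate after 2 h at room temperature. Compound exposure at 37 °C in PPARδ-bla HEK293H cells driven by an upstream activator sequence.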

[10] = qHTS assay to identify small molecule antagonists of the peroxisome proliferator-activated receptor delta (PPARd) signaling pathway - cell viability counter screen (AID 743213); details: PPARd-bla HEK293H viability, CellTiter-Glo luminescence, 17 h; viability change, negative = cytotoxic: at 62 µM (top of the series) unless noted; note: nearly all actives have a fitted effect of over 50% in size
Procedure, shortened: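 Viability counter-screen, qHTS format: PPARd-bla HEK293H, L165041 300 nM final, 17 h compound exposure at 37 C, CellTiter-Glo luminescence after 30 min RT.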

[11] = target: Peroxisome proliferator-activated receptor delta (Homo sapiens) (UniProt Q03181); assay: qHTS assay to identify small molecule antagonists of the peroxisome proliferator-activated receptor delta (PPARd) signaling pathway (AID 743215; active = well fitted inhibition curve with a large enough effect in the signal ratio in the repeat runs, not every such curve was filed as active; inconclusive = weak or mixed curves, or effect the other way; inactive = no such curve, though single readings can be large or run the other way; the % refers to the signal ratio;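 note: cells stimulated with agonist L165041 at 300 nM final during compound exposure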); details: HEK293H PPARd-UAS-bla, beta-lactamase FRET ratio, antagonist, 17 h
Procedure, shortened: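 Plated HEK293H PPARd-bla cells rested 5 h at 37 C and 5% CO2. Compound, then agonist L165041 at 300 nM final, was added; 17 h at 37 C followed. Substrate loading, 2 h room temperature, fluorescence measured.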

[12] = qHTS assay to identify small molecule antagonists of the estrogen related receptor (ERR) signaling pathway from Tox21 library - cell viability counter screen (AID 1224834); note: potency is the fitted concentration of half-maximal effect; nearly all actives have a fitted effect of over 30% in size
Procedure, shortened: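 Compounds in DMSO were pinned onto ERR cells that had been incubated for 6 h, and the plates were held at 37 C for 17.5 h. CellTiter-Fluor reagent was then added and fluorescence was measured after 30 min.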

[13] = qHTS RealTime-Glo MT Cell Viability Assay in HEK293 cells - 24 hour (AID 1224886); note: top concentration of the series differs between compounds; nearly all actives have a fitted effect of over 50% in size
Procedure, shortened: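 Tox21 10K qHTS, HEK293, 600 cells/well, RealTime-Glo reagent co-dispensed with cells; 5 h preincubation, compound by pintool, 37 C, luminescence at 0–40 h.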

[14] = A CellTox Green Cytotoxicity Assay to monitor cytotoxicity in HEK293 cells - 16 hour (AID 1224888); note: nearly all actives have a fitted effect of over 35% in size
Procedure, shortened: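 Dead-cell fluorescence measured kinetically: asymmetric cyanine dye, HEK293, 600 cells/well, 5 h settle, 23 nL cpd/DMSO, 37 C, reads 0–40 h every 8 h.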

[15] = qHTS assay to identify small molecule antagonists of the androgen receptor (AR) signaling pathway using the MDA cell line in the presence of 0.5 nM R1881 - cell viability counter screen (AID 1259242); note: potency is the fitted concentration of half-maximal effect; nearly all actives have a fitted effect of over 45% in size
Procedure, shortened: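 qHTS format. MDA-kb2 (MMTV-luc, AR/GR responsive) + cpd + 0.5 nM R1881 final, 16 hr 37C/0% CO2 → CellTiter-Fluor 30 min → fluorescence intensity.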

[16] = target: Estrogen receptor beta (Homo sapiens) (UniProt Q92731); assay: qHTS assay to identify small molecule agonists of the estrogen receptor beta (ER-beta) signaling pathway (AID 1259377; active = well fitted activation curve with a large enough effect in the signal ratio in the repeat runs, not every such curve was filed as active; inconclusive = weak or mixed curves, or effect the other way; the % refers to the signal ratio); details: ER-beta-UAS-bla HEK293T, beta-lactamase FRET ratio, 16 h; activation: at 92.4 µM (top of the series) unless noted
Procedure, shortened: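 HEK293T ER-beta-UAS-bla; 2% charcoal-stripped FBS; cells pre-incubated 6 hr, compound 16 hr, 37C/5% CO2; LiveBLAzer B/G FRET substrate 2 h RT; fluorescence intensity read.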

[17] = qHTS assay to identify small molecule agonists of the progesterone receptor (PR) signaling pathway - cell viability counter screen (AID 1346799; calls by dose curve; note: potency is the fitted concentration of half-maximal effect; nearly all actives have a fitted effect of over 45% in size)
Procedure, shortened: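 Luminescence from CellTiter-Glo, added after the beta-lactamase FRET read in the same wells, gave cytotoxicity in PR-UAS-bla HEK293T cells treated with compounds for 16 hr at 37C.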

[18] = Caspase-3/7 induction in CHO-K1 cells by small molecules, qHTS cell viability counter screen (AID 1346979); note: potency is the fitted concentration of half-maximal effect; nearly all actives have a fitted effect of over 35% in size
Procedure, shortened: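 Cells (CHO-K1, wild type) are plated at 1,500 per well and incubated 5hr. Test compounds in DMSO are then pinned in, followed by 16hr at 37C and 5% CO2. Viability is read by CellTiter-Fluor fluorescence after 1hr.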

[19] = target: Cytochrome P450 2C9 (Homo sapiens) (UniProt P11712); assay: Cytochrome P450 Family 2 Subfamily C Member 9 (CYP2C9) small molecule antagonists: luciferase reporter qHTS assay (AID 1671198); note: potency is the fitted concentration of half-maximal effect; nearly all actives have a fitted effect of over 50% in size
Procedure, shortened: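 Enzyme-substrate mix preincubated with compound 10 min at room temperature; reaction started with NADPH regeneration solution, 1 h 37C. Luminescent luciferin product read after 20 min detection reagent.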

[20] = target: Cytochrome P450 1A2 (Homo sapiens) (UniProt P05177); assay: Cytochrome P450 Family 1 Subfamily A Member 2 (CYP1A2) small molecule antagonists: luciferase reporter qHTS assay (AID 1671199)
Procedure, shortened: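 Steps: enzyme-substrate mix dispensed; test compounds and furafylline control pinned in; 10 min room temperature; NADPH regeneration solution added, 1 h; reaction stopped with luciferin detection reagent; luminescence read after 20 min.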

Measured: Potency

NC(=O)C1=CN(C2OC(COP(=O)(O)OP(=O)(O)OC[C@H]3O[C@@H](n4cnc5c(N)ncnc54)[C@H](OP(=O)(O)O)C3O)C(O)C2O)C=CC1 (stereo not given in full)
inconclusive: [1] 15 µM [activator]

CC(CN)CC(C)(C)CCN (stereo not given)
inconclusive: [2] 0.498 µM [activator, single point] | [4] 55.9 µM [cytotoxic, single point] | [7] 140 µM | [12] 78.9 µM [cytotoxic, partial curve, poor fit] | [15] 70.4 µM [cytotoxic, partial curve, poor fit] | [17] 125 µM [cytotoxic, partial curve, poor fit] | [18] 88.6 µM [cytotoxic, partial curve, poor fit] | [19] 41 µM [inhibitor, partial curve] | [20] 81.8 µM [inhibitor, partial curve, poor fit]
active: [3] 44.4 µM | [5] 6.27 µM
inactive: [6] | [8] | [9] | [10] | [11] | [13] | [14] | [16]

Source: PubChem BioAssay (Tox21)
